# Reference: PubChem BioAssay AID1711 (National Center for Advancing Translational Sciences (NCATS), 2009)
# Chains of the proteins cited; added tags and fusions are not shown. Lines headed by an entry give the natural chain unless they say otherwise; changes in a name come on top.
# UniProt P29466: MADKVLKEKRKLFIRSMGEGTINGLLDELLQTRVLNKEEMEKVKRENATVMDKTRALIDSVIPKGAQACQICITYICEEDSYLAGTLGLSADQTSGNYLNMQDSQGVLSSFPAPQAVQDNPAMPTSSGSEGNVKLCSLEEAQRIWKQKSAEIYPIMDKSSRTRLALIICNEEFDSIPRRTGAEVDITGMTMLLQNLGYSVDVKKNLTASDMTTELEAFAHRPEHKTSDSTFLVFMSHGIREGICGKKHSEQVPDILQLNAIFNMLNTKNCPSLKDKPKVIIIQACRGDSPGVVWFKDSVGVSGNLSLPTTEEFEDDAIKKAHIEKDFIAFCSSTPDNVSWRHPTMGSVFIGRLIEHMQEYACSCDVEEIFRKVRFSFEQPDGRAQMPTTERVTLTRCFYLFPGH
# This list was built around the results that the source calls inconclusive (neither active nor inactive); the mix of calls is not that of the screen. Potencies of inconclusive entries are doubtful fits and often do not repeat. Activity calls are given as the source filed them. Calls come from the whole dose curve; as a rule, active = well fitted curve in the direction sought with a large enough effect; inconclusive = small, poorly fitted or top-dose-only effect, or another doubt; inactive = no such curve, though single readings can be large or run the other way.
# Target: Caspase-1 (Homo sapiens) (UniProt P29466)
# Experiment: Concentration-Response Counterscreen for Tau: Redox Active Inhibitors of Caspase-1
# Details: purified caspase-1, Ac-WEHD-AFC fluorescence kinetic
# Source text: NIH Molecular Libraries Probe Production Network [MLPCN] NIH Chemical Genomics Center [NCGC] MLPCN Grant: X01 MH083262-01 Assay Provider: Carlo Ballatore, University of Pennsylvania NCGC Assay Overview: The microtubule-associated protein tau is an abundant protein in the axons of neurons that stabilizes microtubules. With its ability to modulate microtubule dynamics, tau contributes directly or indirectly, to key structural and regulatory cellular functions. Particularly important is the influence tau exerts on axonal transport, which allows signaling molecules, trophic factors and other essential cellular constituents to travel along the axons. Under pathological conditions, tau becomes sequestered into insoluble aggregates called neurofibrillary tangles. This phenomenon is believed to have pathological consequences by promoting axonal transport deficits that ultimately lead to synaptic dysfunction and neuronal loss. To examine the selectivity of tau fibrillization inhibitors, compounds were tested in an in vitro assay for caspase-1 activity. This assay is a counterscreen for tau fibrillization inhibitors to identify non-specific oxidizing agents; an active site cysteine in caspase-1 must remain in a reduced state and the enzyme is inactivated by oxidative compounds. Caspase-1 activity was monitored using a profluorescent substrate that upon enzymatic cleavage yields a fluorescent probe that is detectable at 405 nm excitation and 525 nm emission. Scheer, J. M., Wells, J. A., and Romanowski, M. J. (2005) Protein Expression and Purification 41, 148-153.
# NCGC Assay Protocol Summary: Caspase-1, kindly provided by Dr. James Wells (University of California, San Francisco), was purified and assayed at 100 nM in buffer containing 50 mM HEPES pH 7.5, 50 mM KCl, 200 mM NaCl, and 0.1% CHAPS. Caspase-1 was dispensed at 3 uL/well into black solid 1536-well plates and incubated 5 min with various concentrations of test compound, with subsequent addition of 1 ul/well Ac-WEHD-AFC substrate (20 uM final concentration). Within 1 minute of substrate addition, fluorescence intensity (405 nm excitation and 525 nm emission) was measured on a ViewLux (PerkinElmer) every 30 s for 10 min. The first 3 minutes of fluorescence values were linear and used to calculate the slope of substrate conversion as a measure of enzyme activity.
row,SMILES,Potency
1,Nc1cc(-c2ccccc2)c[nH]c1=O,active: 7.94 µM
2,Nc1scc2c(C(=O)NCc3ccccc3)nn(-c3ccccc3)c(=O)c12,"inconclusive: 31.6 µM [inhibitor, partial curve]"
3,CCOC(=O)c1nn(-c2ccc(Cl)cc2)c(=O)c2c(N)scc12,"inconclusive: 35.5 µM [inhibitor, partial curve]"
4,NC(=O)c1nn(-c2ccccc2)c(=O)c2c(N)scc12,"inconclusive: 28.2 µM [inhibitor, partial curve]"
5,COc1ncc(-c2ccccc2)cc1N,active: 15.8 µM
